Measurements as given in ChEMBL document CHEMBL4513141, “CO-ADD screening of NIH (USA) - Clinical Collection” (2021).
Some of the results follow. Potency and affinity values are given separately.

What follows are molecules tested on Pseudomonas aeruginosa. Conditions: Concentration 20 uM; ASSAY_TEST Inhibition of Bacterial Growth; detection method Absorption (OD600); MEDIA CAMHB; plate type 384well; NBS; CORNING #3640; time 18 hr.

In order of rising Inhibition:
1. C[C@]12CC[C@H]3[C@@H](CCC4=CC(=O)CC[C@@]43C)[C@@H]1CC[C@@H]2O [TESTOSTERONE]  -7.2%
2. C[C@]12CCC(=O)C[C@@H]1CC[C@@H]1[C@@H]2CC[C@@]2(C)[C@H]1CC[C@]2(C)O [MESTANOLONE]  -5.79%
3. CN1CCN(C2=Nc3cc(Cl)ccc3Nc3ccccc32)CC1 [CLOZAPINE]  1.5%
4. Brc1c(NC2=NCCN2)ccc2nccnc12 [BRIMONIDINE]  1.87%
5. CS(=O)(=O)O.O=C(O[C@@H]1C[C@@H]2C[C@H]3C[C@H](C1)N2CC3=O)c1c[nH]c2ccccc12  3.12%
6. Nc1nc(F)nc2c1ncn2[C@@H]1O[C@H](CO)[C@@H](O)[C@@H]1O [FLUDARABINE]  3.29%
7. O=C1CN=C(c2ccccc2)c2cc([N+](=O)[O-])ccc2N1 [NITRAZEPAM]  3.8%
8. CN(C)CCc1c[nH]c2ccc(C[C@H]3COC(=O)N3)cc12 [ZOLMITRIPTAN]  4.59%
9. CN1[C@@H]2CC[C@H]1CC(OC(=O)C(CO)c1ccccc1)C2 (stereo partly drawn)  4.94%
10. Fc1ccc([C@@H]2CCNC[C@H]2COc2ccc3c(c2)OCO3)cc1.O=C(O)/C=C\C(=O)O  5.4%
11. COc1cc2c(cc1OC)[C@@]13CCN4CC5=CCO[C@H]6CC(=O)N2[C@H]1[C@H]6[C@H]5C[C@H]43 [BRUCINE]  5.67%
12. C[C@]12CC[C@H]3[C@@H](CCC4=CC(=O)CC[C@@H]43)[C@@H]1CC[C@@H]2O [NANDROLONE]  5.8%
13. CCOC(=O)c1ncn2c1CN(C)C(=O)c1cc(F)ccc1-2 [FLUMAZENIL]  6.15%
14. N=C(NCc1ccc(Cl)cc1)SCCCc1c[nH]cn1 [CLOBENPROPIT]  6.44%
15. CC(C)CC(N(C)C)C1(c2ccc(Cl)cc2)CCC1 (stereo not drawn) [SIBUTRAMINE]  6.77%
16. Cc1cc(NS(=O)(=O)c2ccc(N)cc2)no1 [SULFAMETHOXAZOLE]  6.86%
17. Cc1c(O)c(=O)ccn1C [DEFERIPRONE]  6.92%
18. C=C(C)CN1CC[C@]23c4c5ccc(O)c4O[C@H]2c2[nH]c4ccccc4c2C[C@@]3(O)C1C5.Cl.O  7.22%
19. CC(=O)CC(c1ccccc1)c1c([O-])c2ccccc2oc1=O.[Na+] (stereo not drawn) [WARFARIN SODIUM]  7.36%
20. Cl.NCC(O)c1ccc(O)c(O)c1 (stereo not drawn)  7.4%
21. NC(=O)OCCCc1ccccc1 [PHENPROBAMATE]  8%
22. NC(=O)C[S+]([O-])C(c1ccccc1)c1ccccc1 (stereo not drawn) [MODAFINIL]  8.07%
23. COC(=O)N1CCN(C(=O)Cc2ccc(Cl)c(Cl)c2)C(CN2CCCC2)C1.O=C(O)/C=C/C(=O)O (stereo not drawn)  8.98%
24. NS(=O)(=O)c1cc(C2(O)NC(=O)c3ccccc32)ccc1Cl (stereo not drawn) [CHLORTHALIDONE]  9.93%
25. CN(C)CCC=C1c2ccccc2CCc2ccccc21.Cl [AMITRIPTYLINE HYDROCHLORIDE]  10.05%
26. CCN(C(C)=O)c1cccc(-c2ccnc3c(C#N)cnn23)c1 [ZALEPLON]  10.08%
27. C[C@H](CCC(=O)O)[C@H]1CC[C@H]2[C@@H]3C(=O)C[C@@H]4CC(=O)CC[C@]4(C)[C@H]3CC(=O)[C@]12C [DEHYDROCHOLIC ACID]  10.13%
28. CCCC(C)(COC(N)=O)COC(=O)NC(C)C (stereo not drawn) [CARISOPRODOL]  10.55%
29. C[C@]12Cc3c[nH]nc3C[C@@H]1CC[C@@H]1[C@@H]2CC[C@@]2(C)[C@H]1CC[C@]2(C)O [STANOZOLOL]  10.82%
30. c1cncc([C@@H]2CCCN2)c1 [NORNICOTINE]  11.27%
31. C[C@]12CC[C@H](O)CC1=CC[C@@H]1[C@@H]2CC[C@]2(C)C(=O)CC[C@@H]12 [PRASTERONE]  11.37%
32. Cl.O=C1CC2(CCCC2)CC(=O)N1CCCCN1CCN(c2ncccn2)CC1 [BUSPIRONE HYDROCHLORIDE]  11.48%
33. C#C[C@]1(OC(C)=O)CC[C@H]2[C@@H]3CCC4=CC(=O)CC[C@@H]4[C@H]3CC[C@@]21C [NORETHINDRONE ACETATE]  11.72%
34. Cc1ncc2n1-c1ccc(Cl)cc1C(c1ccccc1F)=NC2.Cl [MIDAZOLAM HYDROCHLORIDE]  11.86%
35. CC(C)(C)NCC(O)c1cc(O)cc(O)c1.O=S(=O)(O)O (stereo not drawn)  12.22%
36. CCN(CC)CCOC(=O)C(O)(c1ccccc1)c1ccccc1.Cl  12.38%
37. CN/C(=N\CCSCc1nc[nH]c1C)NC#N [CIMETIDINE]  12.46%
38. CN(C)C(=O)C(CCN1CCC(O)(c2ccc(Cl)cc2)CC1)(c1ccccc1)c1ccccc1.Cl [LOPERAMIDE HYDROCHLORIDE]  13.15%
39. C[N+]1(C)CCN(c2ccccc2)CC1.[I-] [DIMETHYLPHENYLPIPERAZINIUM IODIDE]  13.74%
40. C[C@]12CCC(=O)C=C1CC[C@@H]1[C@@H]2CC[C@@]2(C)[C@H]1CC[C@]2(C)O [METHYLTESTOSTERONE]  14.14%
41. CCC1(c2ccc(N)cc2)CCC(=O)NC1=O (stereo not drawn) [AMINOGLUTETHIMIDE]  14.25%
42. NCCc1ccccn1  14.43%
43. CNC1=Nc2ccc(Cl)cc2C(c2ccccc2)=[N+]([O-])C1 [CHLORDIAZEPOXIDE]  14.44%
44. C[N+]1(C)CCCC(OC(=O)C(O)(c2ccccc2)c2ccccc2)C1.[Br-] (stereo not drawn) [MEPENZOLATE BROMIDE]  14.59%
45. CN1CC[C@@]23CCCC[C@@H]2[C@@H]1Cc1ccc(O)cc13.O=C(O)C(O)C(O)C(=O)O  14.64%
46. c1ccc2c3c([nH]c2c1)CNCC3 [TRYPTOLINE]  14.82%
47. COc1ccc2[nH]cc(C3=CCNCC3)c2c1.COc1ccc2[nH]cc(C3=CCNCC3)c2c1.O=C(O)CCC(=O)O  15%
48. CC1CCC[C@H](O)CCCCCc2cc(O)cc(O)c2C(=O)O1 (stereo partly drawn)  15.14%
49. COc1cc(CNC(=O)CCCC/C=C\C(C)C)ccc1O [ZUCAPSAICIN]  15.26%
50. CC[C@@H]1/C=C/C=C/C[C@H](C)[C@@H](O)[C@](C)(O)C(=O)[C@H](C)[C@@H](O)[C@H](C)C(=O)[C@H](C)[C@@H](O)[C@H](C)/C=C/C(=O)O[C@H]2[C@@H](C)[C@@H](CC1)O[C@@]1(CC[C@@H](C)[C@@H](C[C@H](C)O)O1)[C@@H]2C  15.85%
51. Cl.O=C1CC[C@@]2(O)[C@H]3Cc4ccc(O)c5c4[C@@]2(CCN3CC2CC2)[C@H]1O5 [NALTREXONE HYDROCHLORIDE]  15.95%
52. Nc1nc2ccc(Cl)cc2c2nc(-c3ccco3)nn12 [CGS-15943]  16.02%
53. CN1C(=O)CN=C(c2ccccc2)c2cc([N+](=O)[O-])ccc21 [NIMETAZEPAM]  16.21%
54. Cn1c(=O)c2nc[nH]c2n(C)c1=O.O [THEOPHYLLINE]  16.98%
55. CN1[C@@H](CC(=O)c2ccccc2)CCC[C@H]1C[C@H](O)c1ccccc1.Cl [LOBELINE HYDROCHLORIDE]  18.5%
56. C#CCN(C)[C@H](C)Cc1ccccc1.Cl [SELEGILINE HYDROCHLORIDE]  19.46%
57. Br.CN1[C@@H]2CC(OC(=O)[C@H](CO)c3ccccc3)C[C@H]1[C@@H]1O[C@@H]12.O.O.O (stereo partly drawn)  20.16%
58. CCCCCNC(=N)N/N=C/c1c[nH]c2ccc(OC)cc12.O=C(O)/C=C\C(=O)O [TEGASEROD MALEATE]  20.58%
59. CS(=O)(=O)Nc1ccc(Cc2noc(-c3ccc4[nH]cc(CCN)c4c3)n2)cc1.O.O  20.72%
60. Cl.c1ccc2c(CC3=NCCN3)cccc2c1 [NAPHAZOLINE HYDROCHLORIDE]  21.25%
61. COC(=O)C1=C(C)NC(C)=C(C(=O)OC)C1c1ccccc1[N+](=O)[O-] [NIFEDIPINE]  24.23%
62. CC(C)[C@]12O[C@H]1[C@@H]1O[C@]13[C@]1(O[C@H]1C[C@H]1C4=C(CC[C@@]13C)C(=O)OC4)[C@@H]2O [TRIPTOLIDE]  24.45%
63. O=C(O[C@@H]1Cc2c(O)cc(O)cc2O[C@@H]1c1cc(O)c(O)c(O)c1)c1cc(O)c(O)c(O)c1 [EPIGALOCATECHIN GALLATE]  27.87%
64. CN(C)CCc1c[nH]c2ccc(Cn3cncn3)cc12.O=C(O)c1ccccc1 [RIZATRIPTAN BENZOATE]  30.78%
65. Cl.O.Oc1cc2c(cc1O)[C@H]1c3ccccc3CN[C@@H]1CC2  31.74%
66. C=C(C)[C@@H]1[C@H]2OC(=O)[C@@H]1[C@]1(O)C[C@H]3O[C@]34C(=O)O[C@H]2[C@]14C.CC(C)(O)[C@@H]1[C@H]2OC(=O)[C@@H]1[C@]1(O)C[C@H]3O[C@]34C(=O)O[C@H]2[C@]14C  33.69%
67. C=C1C[C@@H]2[C@H](CC[C@]3(C)C(=O)CC[C@@H]23)[C@@]2(C)C=CC(=O)C=C12 [EXEMESTANE]  41.21%
68. Cc1ccnc2c1NC(=O)c1cccnc1N2C1CC1 [NEVIRAPINE]  42.2%
